# Assay results: the supplement of paper PMC7238544
# Where a name gives a salt, the structure may show the parent alone. ± gives the standard deviation of the averaged measurements. This is one part of the list. The data scatter; read single values as rough.
# Experiments:
# [1] = tested on: hAMSC donor 1; experiment: Hoechst total cell count ratio vs vehicle control; higher = more cells (less toxicity)
# [2] = tested on: hAMSC donor 2; experiment: as above
# [3] = tested on: hAMSC donor 1; experiment: transgenic luciferase activity (RLU/mg protein) fold change vs vehicle control (ratio); higher = more transgene expression
# [4] = tested on: hAMSC donor 1; experiment: transfection efficiency (EGFP+ cells / Hoechst count) fold change vs vehicle control (ratio); hAMSC are human adipose-derived mesenchymal stem cells given an EGFP-luciferase plasmid by lipofection; higher = enhanced transfection
# [5] = tested on: hAMSC donor 2; experiment: as above
# [6] = priming compound concentration 0.2 µM
# [7] = priming compound concentration 1.7 µM
# [8] = priming compound concentration 13 µM
Compound,"Hoechst total cell count ratio [1, 6]","Hoechst total cell count ratio [1, 7]","Hoechst total cell count ratio [1, 8]","Hoechst total cell count ratio [2, 6]","Hoechst total cell count ratio [2, 7]","Hoechst total cell count ratio [2, 8]","transgenic luciferase activity [3, 8]","transfection efficiency [4, 6]","transfection efficiency [4, 7]","transfection efficiency [4, 8]","transfection efficiency [5, 6]","transfection efficiency [5, 7]","transfection efficiency [5, 8]","transgenic luciferase activity [3, 6]","transgenic luciferase activity [3, 7]"
O=[N+]([O-])c1cccc2cn[nH]c12 [7-Nitroindazole],1.18 ± 0.096,1.08 ± 0.042,1.18 ± 0.071,1.25 ± 0.11,1.32 ± 0.09,1.19 ± 0.1,0.948 ± 0.51,0.766 ± 0.12,0.778 ± 0.098,0.824 ± 0.06,0.877 ± 0.12,0.815 ± 0.11,1 ± 0.11,–,–
Nc1ccc2cn[nH]c2c1 [6-Aminoindazole],1.32 ± 0.15,1.41 ± 0.2,1.24 ± 0.16,0.988 ± 0.035,0.823 ± 0.097,1.15 ± 0.35,–,0.988 ± 0.14,0.857 ± 0.23,1.01 ± 0.15,1.15 ± 0.056,1.18 ± 0.1,0.931 ± 0.19,1.25 ± 0.35,–
CC(COc1ccccc1)NC(C)C(O)c1ccc(O)cc1 (stereo not drawn) [Duvadilan],1.38 ± 0.21,1.17 ± 0.025,1.33 ± 0.1,1.11 ± 0.23,0.678 ± 0.12,1.4 ± 0.41,–,1.39 ± 0.19,0.88 ± 0.079,0.813 ± 0.082,0.928 ± 0.34,1.73 ± 0.12,1.26 ± 0.47,–,0.403 ± 0.05
CS(=O)(=O)c1ccc(C2=C(c3ccccc3)C(=O)OC2)cc1 [Rofecoxib],1.28 ± 0.16,1.18 ± 0.087,1.15 ± 0.029,1.12 ± 0.16,0.932 ± 0.06,1.25 ± 0.21,0.959 ± 0.25,0.978 ± 0.15,1.09 ± 0.21,0.7 ± 0.32,1.15 ± 0.15,1.33 ± 0.04,0.843 ± 0.14,–,–
COc1cc2nc(N(C)CCCNC(=O)C3CCCO3)nc(N)c2cc1OC (stereo not drawn) [Alfuzosin],1.33 ± 0.1,1.15 ± 0.12,1.17 ± 0.13,1.03 ± 0.13,1.17 ± 0.094,1.29 ± 0.14,1.16 ± 0.96,1.06 ± 0.18,1.01 ± 0.059,1.22 ± 0.28,1.42 ± 0.31,1.33 ± 0.21,0.851 ± 0.14,–,–
CO[C@H]1O[C@@H]2O[C@@]3(C)CC[C@H]4[C@H](C)CC[C@@H]([C@H]1C)[C@@]24OO3 [Artemether],1.57 ± 0.086,1.4 ± 0.078,1.05 ± 0.13,1 ± 0.057,1.11 ± 0.09,1.04 ± 0.042,0.769 ± 0.11,0.948 ± 0.084,0.941 ± 0.057,1.5 ± 0.2,1.05 ± 0.19,1.04 ± 0.18,1.25 ± 0.29,–,–
CCCOc1ccc(C(=O)OCCN(CC)CC)cc1N [Proxymetacaine],1.42 ± 0.091,1.39 ± 0.18,1.2 ± 0.14,0.869 ± 0.14,1.231 ± 0.01,1.25 ± 0.17,–,0.856 ± 0.21,0.864 ± 0.035,0.914 ± 0.11,1.25 ± 0.14,0.992 ± 0.06,1.1 ± 0.22,0.678 ± 0.28,–
CCCCCCCCCCC[C@@H](C[C@@H]1OC(=O)[C@H]1CCCCCC)OC(=O)[C@H](CC(C)C)NC=O [Orlistat],1.42 ± 0.23,1.45 ± 0.11,1.29 ± 0.064,1.11 ± 0.15,1.13 ± 0.099,0.974 ± 0.21,0.975 ± 0.66,1.14 ± 0.46,0.989 ± 0.11,1.09 ± 0.28,1.14 ± 0.023,1.17 ± 0.096,1.24 ± 0.3,–,–
CSc1ccc2c(c1)N(CCC1CCCCN1C)c1ccccc1S2 (stereo not drawn) [Thioridazine hydrochloride],1.26 ± 0.16,1.23 ± 0.17,1.14 ± 0.084,0.966 ± 0.61,1.11 ± 0.022,0.575 ± 0.14,–,1.36 ± 0.2,1.11 ± 0.29,0.934 ± 0.18,1.22 ± 0.53,1.28 ± 0.15,1.09 ± 0.2,–,1.38 ± 0.43
CC1=C(C(=O)O)N2C(=O)[C@@H](NC(=O)[C@H](N)c3ccccc3)[C@H]2SC1 [Cephalexin hydrate],1.56 ± 0.14,1.4 ± 0.063,1.12 ± 0.1,1.21 ± 0.073,1.15 ± 0.16,1.25 ± 0.15,0.707 ± 0.37,1.01 ± 0.17,0.976 ± 0.14,1.47 ± 0.23,1.15 ± 0.1,1.09 ± 0.3,0.875 ± 0.19,–,–
CN(CCO)CC(O)Cn1cnc2c1c(=O)n(C)c(=O)n2C (stereo not drawn) [Xanthinol nicotinate],1.39 ± 0.14,1.17 ± 0.043,1.21 ± 0.056,0.901 ± 0.3,1.44 ± 0.3,1.06 ± 0.13,0.693 ± 0.14,0.674 ± 0.06,1.01 ± 0.12,0.869 ± 0.34,1.19 ± 0.17,1.08 ± 0.16,0.9 ± 0.17,–,–
Cc1cccc(C)c1NC(=O)C(C)N (stereo not drawn) [Tocainide],1.36 ± 0.17,1.31 ± 0.1,1.36 ± 0.14,0.888 ± 0.31,1.2 ± 0.13,1.11 ± 0.24,0.662 ± 0.39,0.867 ± 0.27,1.18 ± 0.44,0.717 ± 0.16,1.27 ± 0.27,1.54 ± 0.096,1.02 ± 0.34,–,–
CCOC(=O)OC(C)OC1=C(C(=O)Nc2ccccn2)N(C)S(=O)(=O)c2ccccc21 (stereo not drawn) [Ampiroxicam],1.21 ± 0.081,1.21 ± 0.2,0.991 ± 0.15,1.3 ± 0.07,1.03 ± 0.16,0.996 ± 0.17,0.903 ± 0.1,1.06 ± 0.17,1.03 ± 0.076,1.27 ± 0.39,0.932 ± 0.083,1.23 ± 0.26,1.56 ± 0.66,–,–
COc1ccc(-c2cc(=O)c3c(OC)c(OC)c(OC)c(OC)c3o2)cc1OC [Nobiletin],1.1 ± 0.067,1.11 ± 0.015,1.08 ± 0.092,1.41 ± 0.39,1.07 ± 0.098,1.41 ± 0.32,0.699 ± 0.24,1.16 ± 0.25,1.28 ± 0.07,0.822 ± 0.063,0.832 ± 0.27,1.14 ± 0.31,0.943 ± 0.2,–,–
CCC1=C[C@@H]2CN(C1)Cc1c([nH]c3ccccc13)[C@@](C(=O)OC)(c1cc3c(cc1OC)N(C)[C@H]1[C@@](O)(C(=O)OC)[C@H](OC(C)=O)[C@]4(CC)C=CCN5CC[C@]31[C@@H]54)C2 [Vinorelbine tartrate],1.16 ± 0.22,0.831 ± 0.065,0.659 ± 0.15,0.738 ± 0.097,0.458 ± 0.024,0.576 ± 0.13,0.792 ± 0.3,1.09 ± 0.29,1.26 ± 0.072,1.02 ± 0.073,1.36 ± 0.39,1.53 ± 0.21,0.815 ± 0.24,–,–
CO[C@@H]1[C@@H](O[C@@H]2O[C@H](C)[C@@H](O[C@H]3C[C@@](C)(O)[C@@H](OC(=O)CC(C)C)[C@H](C)O3)[C@H](N(C)C)[C@H]2O)[C@@H](CC=O)C[C@@H](C)[C@@H](O)/C=C/C=C/C[C@@H](C)OC(=O)C[C@H]1O [Kitasamycin],1.43 ± 0.16,1.23 ± 0.14,1.07 ± 0.037,0.85 ± 0.13,1 ± 0.096,1.02 ± 0.28,–,1.1 ± 0.049,0.791 ± 0.11,1.34 ± 0.38,1.01 ± 0.094,1.23 ± 0.12,1.13 ± 0.34,–,0.748 ± 0.75

# Another view of some results above.
Compound	Hoechst total cell count ratio [1, 6]	Hoechst total cell count ratio [1, 7]	Hoechst total cell count ratio [1, 8]	Hoechst total cell count ratio [2, 6]	Hoechst total cell count ratio [2, 7]	Hoechst total cell count ratio [2, 8]	transgenic luciferase activity [3, 8]	transfection efficiency [4, 6]	transfection efficiency [4, 7]	transfection efficiency [4, 8]	transfection efficiency [5, 6]	transfection efficiency [5, 7]	transfection efficiency [5, 8]	transgenic luciferase activity [3, 6]	transgenic luciferase activity [3, 7]
COc1cc2nc(N(C)CCCNC(=O)C3CCCO3)nc(N)c2cc1OC (stereo not drawn) [Alfuzosin]	1.33 ± 0.1	1.15 ± 0.12	1.17 ± 0.13	1.03 ± 0.13	1.17 ± 0.094	1.29 ± 0.14	1.16 ± 0.96	1.06 ± 0.18	1.01 ± 0.059	1.22 ± 0.28	1.42 ± 0.31	1.33 ± 0.21	0.851 ± 0.14	–	–
CO[C@H]1O[C@@H]2O[C@@]3(C)CC[C@H]4[C@H](C)CC[C@@H]([C@H]1C)[C@@]24OO3 [Artemether]	1.57 ± 0.086	1.4 ± 0.078	1.05 ± 0.13	1 ± 0.057	1.11 ± 0.09	1.04 ± 0.042	0.769 ± 0.11	0.948 ± 0.084	0.941 ± 0.057	1.5 ± 0.2	1.05 ± 0.19	1.04 ± 0.18	1.25 ± 0.29	–	–
